# Experimental data taken from PMC12431657, “Discovery and mechanistic insights of dibenzoylmethane as a broad spectrum inhibitor of coronavirus” (PLOS Pathogens, 2025).
# Where a name gives a salt, the structure may show the parent alone. Read-outs that look alike come from different tables or passages of the source. Out of some 3,300 compounds screened, about 60 (2%) showed an effect of 50% or more. The list shows a part of the results.
# Tested on: HCoV-OC43
# Parameters: species or system RD; HTS, protection from HCoV-OC43 induced cell death, luminescent cell viability (CellCounting-Lite 2.0), inhibition rate
# Conditions: 24 h post infection, 1 h compound pre-incubation, 10 µM, inhibitor
SMILES,"OC43 Inhibition rate (OC43 Inhibition rate, 24 h)",OC43 Inhibition rate
COc1cc2c(cc1OC)[C@@H]1Cc3ccc(OC)c(OC)c3CN1CC2 [Tetrahydropalmatine],3.1%,–
COc1cc2c(cc1OC)-c1c(C)c3ccc(OC)c(OC)c3c[n+]1CC2 [Dehydrocorydaline],3.1%,–
COc1ccc([C@@H]2CC(=O)c3c(O)cc(O[C@@H]4O[C@H](CO)[C@@H](O)[C@H](O)[C@H]4O[C@@H]4O[C@@H](C)[C@H](O)[C@@H](O)[C@H]4O)cc3O2)cc1 [Poncirin],–,-0.1%
CC(C)(O)[C@@H]1CC[C@](C)([C@H]2[C@@H](O)C[C@@]3(C)[C@@H]4C[C@H](O[C@@H]5O[C@H](CO)[C@@H](O)[C@H](O)[C@H]5O)[C@H]5C(C)(C)[C@@H](O[C@@H]6OC[C@@H](O)[C@H](O)[C@H]6O[C@@H]6O[C@H](CO)[C@@H](O)[C@H](O)[C@H]6O)CC[C@@]56C[C@@]46CC[C@]23C)O1 [Astragaloside VI],–,0%
COc1ccc2c(c1OC)O[C@H]1c3ccc(O[C@@H]4O[C@H](CO)[C@@H](O)[C@H](O)[C@H]4O)cc3OC[C@@H]21 [Methylnissolin-3-O-glucoside],–,0.6%
COc1cc(/C=C/c2ccc(O)cc2)cc(OC)c1 [Pterostilbene],–,12.2%
COc1cc(CN)ccc1O [Vanillylamine],–,-0.1%
COc1cc2oc(=O)ccc2cc1CC=C(C)C [Suberosin],–,9.9%
COc1ccc(/C=C\c2cc(OC)c(OC)c(OC)c2)cc1O [Combretastatin A4],–,0.3%
O=CC[C@H](O)[C@H](O)CO [Thyminose],–,-0.3%
CCCCC(CC)COC(=O)C=Cc1ccc(OC)cc1 (centres unmarked) [Octinoxate],–,5.8%
CC(C)=CCC[C@](C)(O[C@@H]1O[C@H](CO)[C@@H](O)[C@H](O)[C@H]1O)[C@H]1CC[C@]2(C)[C@@H]1[C@H](O)C[C@@H]1[C@@]3(C)CC[C@H](O)C(C)(C)[C@@H]3[C@@H](O[C@@H]3O[C@H](CO)[C@@H](O)[C@H](O)[C@H]3O[C@@H]3OC[C@@H](O)[C@H](O)[C@H]3O)C[C@]12C [Notoginsenoside R1],–,0.5%
O=c1c(O)c(-c2ccc(O)cc2)oc2c(O)c(O)cc(O)c12 [Herbacetin],–,0.7%
OCc1ccccc1 [Benzyl alcohol],–,-0.1%
CCC1=C[C@@H]2CN(C1)Cc1c([nH]c3ccccc13)[C@@](C(=O)OC)(c1cc3c(cc1OC)N(C)[C@H]1[C@@](O)(C(=O)OC)[C@H](OC(C)=O)[C@]4(CC)C=CCN5CC[C@]31[C@@H]54)C2 [Vinorelbine (ditartrate)],–,18.3%
C[C@H](N)C(=O)O [L-Alanine],–,0.4%
"C/C=C(/C)C(=O)OC(C)(C)[C@@H]1Cc2c(ccc3ccc(=O)oc23)O1 [Columbianadin, columbianadin]",–,107.6%
COc1ccc(C(=O)O)cc1 [p-Anisic acid],–,-0.4%
CCOC(=O)CCC(=O)O[C@H]1[C@H](O[C@@H]2[C@@H](C)[C@H](O[C@H]3C[C@@](C)(OC)[C@@H](O)[C@H](C)O3)[C@@H](C)C(=O)O[C@H](CC)[C@@](C)(O)[C@H](O)[C@@H](C)C(=O)[C@H](C)C[C@@]2(C)O)O[C@H](C)C[C@@H]1N(C)C [Erythromycin Ethylsuccinate],–,0.4%
COC(=O)C1=CO[C@@H](C)[C@@H]2CN3CC[C@@]4(C(=O)Nc5ccccc54)[C@@H]3C[C@H]12 [Isopteropodine],–,6.4%
C[C@@H]1CCC=C2C(=O)C[C@H]3OOC(C)(C)[C@H]3[C@]21C [Nardosinone],–,5.6%

# Exported with bars between the fields: part of the list above
SMILES | OC43 Inhibition rate (OC43 Inhibition rate, 24 h) | OC43 Inhibition rate
O=CC[C@H](O)[C@H](O)CO [Thyminose] | – | -0.3%
CCCCC(CC)COC(=O)C=Cc1ccc(OC)cc1 (centres unmarked) [Octinoxate] | – | 5.8%
CC(C)=CCC[C@](C)(O[C@@H]1O[C@H](CO)[C@@H](O)[C@H](O)[C@H]1O)[C@H]1CC[C@]2(C)[C@@H]1[C@H](O)C[C@@H]1[C@@]3(C)CC[C@H](O)C(C)(C)[C@@H]3[C@@H](O[C@@H]3O[C@H](CO)[C@@H](O)[C@H](O)[C@H]3O[C@@H]3OC[C@@H](O)[C@H](O)[C@H]3O)C[C@]12C [Notoginsenoside R1] | – | 0.5%

# The listing continues.

SMILES,"OC43 Inhibition rate (OC43 Inhibition rate, 24 h)",OC43 Inhibition rate
COC1[C@H](O)[C@@H](O)C(O)[C@H](O)[C@H]1O (stereo partly drawn) [L-Quebrachitol],–,-2.1%
COc1c(C(C)C)cc2c(c1O)[C@@]1(C(=O)O)CCCC(C)(C)[C@@H]1CC2 [12-O-Methylcarnosic acid],–,54.1%
C[C@@H]1O[C@@H]1P(=O)(O)O [Fosfomycin (sodium)],–,-3%
CC(=O)O[C@H]1[C@H](O[C@H]2CC[C@]34C[C@]35CC[C@]3(C)[C@@H]([C@@]6(C)CC[C@@H](C(C)(C)O)O6)[C@@H](O)C[C@@]3(C)[C@@H]5C[C@H](O[C@@H]3O[C@H](CO)[C@@H](O)[C@H](O)[C@H]3O)[C@H]4C2(C)C)OC[C@@H](O)[C@@H]1O [Astragaloside II],–,0.1%
CC(=O)NCCCCN [N-Acetylputrescine hydrochloride],–,-0.2%
COc1cc2c(cc1O)[C@@H](Cc1ccc(O)c(Oc3ccc(C[C@@H]4c5cc(OC)c(OC)cc5CCN4C)cc3)c1)N(C)CC2 [Daurisoline],–,12.6%
NC(=O)c1[nH]cnc1N [5-Amino-3H-imidazole-4-Carboxamide],–,0.4%
CC[C@]12CCCN3CCc4c(n(c5ccccc45)C(=O)C1)[C@@H]32 [Vinburnine],–,-0.7%
C[Se]CC[C@H](N)C(=O)O [L-SelenoMethionine],1.3%,–
CCCC(=O)C(=O)O [2-Oxovaleric acid],–,-0.9%
O=c1c(O)c(-c2ccc(O)c(O)c2)oc2cc(O)cc(O)c12 [Quercetin],-0.1%,–
OCc1ccc(O[C@@H]2O[C@H](CO)[C@@H](O)[C@H](O)[C@H]2O)cc1 [Gastrodin],–,-0.1%
O=C(O)CNC(=O)c1cccc(O)c1 [3-Hydroxyhippuric acid],–,0%
COc1cc2c(c(OC)c1OC)-c1c(cc3c(c1OC)OCO3)C[C@H](C)[C@H](C)C2 [Gomisin N],15.7%,–
Cc1ncc(COP(=O)(O)O)c(C=O)c1O [Pyridoxal 5'-phosphate (monohydrate)],-1.8%,–
C=C(C)[C@@H]1CC[C@]2(C=O)CC[C@]3(C)[C@H](CC[C@@H]4[C@@]5(C)CC[C@H](O)C(C)(C)[C@@H]5CC[C@]43C)[C@@H]12 [Betulinaldehyde],–,-0.8%
C[S+]([O-])CC[C@H](N)C(=O)O (stereo partly drawn) [L-Methionine sulfoxide],-0.9%,–
COC(=O)Nc1ccc(C)c(NC(=O)OC)c1 [Obtucarbamate A],–,0.7%
CCc1cc(C(N)=S)ccn1 [Ethionamide],–,-1.1%
Cn1cnc2c(ncn2[C@@H]2O[C@H](CO)[C@@H](O)[C@H]2O)c1=N [1-Methyladenosine],–,-0.1%
C=C1CCC2(C(C)C)CC12 (centres unmarked) [Sabinene],–,-0.5%

SMILES,"OC43 Inhibition rate (OC43 Inhibition rate, 24 h)",OC43 Inhibition rate
NC(=O)c1ncn([C@@H]2O[C@H](CO)[C@@H](O)[C@H]2O)c1O [Mizoribine],–,3.1%
Cc1ccc(C(C)C)cc2c(C)ccc1-2 [Guaiazulene],–,0.2%
O=C(O)c1cc(O)c(O)c(O)c1 [Gallic acid (hydrate)],0%,–
CC[C@H]1[C@@H]2C[C@H]3[C@@H]4N(C)c5ccccc5[C@]45C[C@@H]([C@H]2[C@H]5O)N3[C@@H]1O [Ajmaline],–,0.3%
COc1ccc2c(c1)[nH]c1c(C)nccc12 [Harmine],3.1%,–
CCOC(=O)NCCCC(=O)NCCc1ccccc1 [Santacruzamate A],–,-0.6%
C=C1C(=O)O[C@H]2[C@H]1CCC(C)=C1CC[C@@](C)(O)[C@@H]12 [Micheliolide],–,-2.5%
"CCCCCCCC/C=C\CCCCCCCC(=O)OCC(COC(=O)CCCCCCC/C=C\CCCCCCCC)OC(=O)CCCCCCCCCCCCCCC [1,3-Dioleoyl-2-palmitoylglycerol]",–,-0.3%
C[C@@H](O)[C@H](N)C(=O)O [L-Threonine],–,7.5%
CSCC[C@H](N)C(=O)O [L-Methionine],–,0.1%
CC(C)=CC(=O)C[C@H](C)c1ccc(C)cc1 [ar-Turmerone],–,-0.1%
CCc1c2c(nc3ccc(OC(=O)N4CCC(N5CCCCC5)CC4)cc13)-c1cc3c(c(=O)n1C2)COC(=O)[C@]3(O)CC [Irinotecan (hydrochloride)],–,-0.6%
C[C@H](O)[C@H]1CC[C@H]2[C@@H]3CC[C@@H]4C[C@H](O)CC[C@]4(C)[C@H]3CC[C@]12C [Pregnanediol],–,4.1%
OC[C@H]1O[C@@H](OCCc2ccc(O)cc2)[C@H](O)[C@@H](O)[C@@H]1O [Salidroside],–,0.8%
C[C@]12CC[C@@H](O)C[C@H]1CC[C@@H]1[C@@H]2C(=O)C[C@@]2(C)[C@H]1CC[C@]2(O)C(=O)CO [Tetrahydrocortisone],–,0.6%
C=C(C(=O)O)[C@@H]1CC[C@@H](C)[C@@H]2CCC(C)=C[C@@H]21 [Artemisic acid],–,4.6%
CNCCC=C1c2ccccc2CCc2ccccc21 [Nortriptyline],–,10.2%
C[C@H](CC[C@@]1(O)O[C@H]2C[C@H]3[C@@H]4CC[C@@H]5C[C@@H](O[C@@H]6O[C@H](CO)[C@@H](O)[C@H](O)[C@H]6O[C@@H]6O[C@H](CO)[C@@H](O)[C@H](O)[C@H]6O)CC[C@]5(C)[C@H]4CC[C@]3(C)[C@H]2[C@@H]1C)CO[C@@H]1O[C@H](CO)[C@@H](O)[C@H](O)[C@H]1O [Officinalisinin I],–,0.4%
CN1C[C@@H]2C[C@H](C1)c1cccc(=O)n1C2 [N-Methylcytisine],–,-2.8%
Nc1ccccc1C(=O)C[C@H](N)C(=O)O [2-Amino-4-(2-aminophenyl)-4-oxobutanoic acid],-0.5%,–
